# Where “and” joins values, the source holds several entries; their conditions need not be identical. Identical values can stand only once. This is one part of the list. The main result of the screen is listed elsewhere. These columns were measured beside it and carry no call. The list favours compounds with an active or inconclusive main result. Words in brackets tell the shape of the fitted curve; partial curves, single points and poor fits give uncertain potencies.
# Test: qHTS Assay for Lipid Storage Modulators in Drosophila S3 Cells;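 as to cell number change: cells counted by Cell Tracker Red CMTPX staining in the red channel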
# Conditions: BODIPY lipid droplet fluorescence, 18-24 h; for cell number change: measured here: cell count max response, cells fed with added oleic acid
# Outline: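 Drosophila S3 cells loaded with oleic acid (400 uM, as added) and compounds at several concentrations; lipid droplets imaged by 488-nm laser-scanning cytometry, 500–530 nm intensity and object ratio to cell channel. Percent activity normalized to 20 uM Triacsin C.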
# [1] = measured here: lipid fluorescence (Fed channel) AC50, cells fed with added oleic acid
# [2] = measured here: cell number channel AC50, cells fed with added oleic acid
SMILES,cell number change,AC50 [1],AC50 [2]
O=C(Nc1ccc(S(=O)(=O)Nc2nccs2)cc1)c1cc(-c2ccccc2)nc2ccccc12,1.3%,"0.146 µM [rising, full curve, poor fit]",
COc1ccc(OCc2cc(C(=O)N(C)CCC3CCOCC3)no2)c(Cl)c1,-21%,,"0.082 µM [falling, full curve, poor fit]"
CCNS(=O)(=O)c1cc(S(C)(=O)=O)ccc1Cl,-11.2%,"11.6 µM [falling, partial curve]",
CCCC1C2CN(C(C)=O)CC=C2C(C#N)=C(N)C1(C#N)C#N (stereo not given),-4.45%,"0.58 µM [rising, full curve, poor fit]",
Cc1c(C(=O)NCc2ccccn2)oc2c(Cl)cccc12,27.1%,"6.51 µM [rising, partial curve]",
CC(Sc1nnnn1-c1ccc(O)cc1)C(=O)NC1CCCCC1C (stereo not given),10.2%,"11.2 µM [rising, partial curve, poor fit]",
CCN1C(=O)CC(c2ccccc2)CC1=O,1.98%,"3.66 µM [rising, single point]",
CC(C)(C)NC(=O)c1ccc2c3c(cccc13)CC2,5.35%,"6.51 µM [falling, single point]",
Cc1ccc(OCc2cc(C(=O)N(C)CCc3nc4ccccc4[nH]3)no2)cc1C,-14.1%,,
COc1ccc(SC[C@H](Cc2ccccc2)N2CC[C@@H](C(C)(C)C)CCC2=O)cc1,-0.245%,"3.66 µM [rising, single point]",
Cc1oc2cc3oc(=O)cc(C)c3cc2c1C,-2.78%,"25.9 µM [falling, partial curve]",
NC(=S)N/N=C/c1ccccc1OCCSc1ccc(Cl)cc1,-16.1%,"29.1 µM [falling, single point]",
COc1ccc(N(CC(=O)NCCC2=CCCCC2)S(=O)(=O)c2ccccc2)cc1,-8.58%,"20.6 µM [falling, single point]",
COc1ccc(C(=O)COC(=O)CCN2C(=O)C3CC=CCC3C2=O)c(OC)c1 (stereo not given),100%,,"1.64 µM [falling, partial curve]"
O=c1[nH]cnc2scc(C3COc4ccccc4O3)c12 (stereo not given),-44.4%,"29.1 µM [falling, single point]","16.4 µM [falling, single point]"
COc1cccc(OC)c1/C(O)=C(\C#N)c1nc2ccccc2[nH]1,-9.9%,"2.91 µM [falling, full curve]",
Cc1nn(-c2ccccc2)c(C)c1C(=O)OCC(=O)N1CC(=O)Nc2ccccc21,17.2%,"7.31 µM [rising, partial curve]",
COc1ccc(CN2CCNC(=O)C2CC(=O)N(C)Cc2ccon2)c(F)c1 (stereo not given),25.5%,"3.26 µM [rising, single point]",
C[C@H](N)c1nnc(SCC(=O)N(C)C)o1,-87.1%,"4.11 µM [falling, full curve]","4.11 µM [falling, full curve]"
CCC1(C)CC(=O)N(c2ccc(C(=O)O)c(O)c2)C1=O (stereo not given),-43.4%,"3.66 µM [falling, full curve]","0.146 µM [falling, full curve]"

SMILES,cell number change,AC50 [1],AC50 [2]
COCCN(C(=O)COC(=O)CCc1ccccc1OC)c1c(N)n(Cc2ccccc2)c(=O)[nH]c1=O,45.9%,"2.91 µM [falling, partial curve]","29.1 µM [rising, single point]"
O=C1c2ccccc2C(=O)c2c(Nc3ccc(CCO)cc3)ccc(O)c21,-58.6%,"3.26 µM [rising, partial curve]","16.4 µM [falling, partial curve]"
CCCC(C)C(=O)OCC(=O)Nc1ccc(Br)cc1 (stereo not given),17.8%,,
Nc1nc(SCC(=O)N2CCN(c3ccc(F)cc3)CC2)n[nH]1,-26.4%,"18.4 µM [falling, single point]",
CC1=Nc2ccc(C)cc2/C1=C/c1c(N)n2oc(C)cc2nc1=O,41.6%,,"1.3 µM [rising, partial curve] and 20.6 µM [rising, single point]"
CC(=O)c1cccc(NC(=O)CSCc2ccccc2)c1,-14.7%,"18.4 µM [falling, single point]",
CC(CCc1ccccc1)NC(=O)COC(=O)C1=COCCO1 (stereo not given),7.96%,"0.13 µM [falling, full curve, poor fit]",
O=C(O)CCC(=O)NNC(=O)CCC(=O)NCc1ccccc1,1.33%,"0.092 µM [falling, full curve, poor fit]",
O=C(Nc1ccc(N2CCOCC2)cc1)c1cc2ccccc2o1,,,"1.3 µM [rising, partial curve]"
COc1cc(N)c(Cl)cc1Cl,-4.21%,,"0.164 µM [falling, full curve, poor fit]"
O=S(=O)(Nc1ccc(Cc2ccncc2)cc1)c1cccs1,2.23%,,
C=C(C)CN(CC)C(=O)CC1C(=O)NCCN1CC(C)(C)C (stereo not given),-26.1%,"16.4 µM [falling, single point]",
COc1cc(NC(=S)NCc2cccs2)cc(OC)c1,1.58%,"0.116 µM [rising, full curve]",
CCOC(=O)c1ccc(NC(=O)c2nn(CC)cc2Br)cc1,-17.3%,,
N#CC(c1ccc(F)cc1)c1ccc(C(=O)c2ccc(F)cc2)cc1 (stereo not given),65.3%,"18.4 µM [falling, single point]","13 µM [rising, partial curve, poor fit]"
C=C(CCC(=O)c1ccccc1)C(=O)c1ccccc1,-51.8%,"16.4 µM [falling, partial curve]","16.4 µM [falling, single point]"
Cc1ccc(N(CC(=O)NC2CCCCCC2)S(=O)(=O)c2c(C)nn(C)c2C)cc1,21.7%,"5.8 µM [rising, full curve]",
O=C(CN1C(=O)NC2(CCCCC2)C1=O)Nc1ccccc1N1CCCCC1,-12.4%,"0.82 µM [falling, single point]",
Cc1ccc(Nc2c(-c3ccccn3)nc3ccc(C)cn23)cc1,-67.3%,,"0.231 µM [falling, full curve]"
